Source: PMC6915140
Results are given in words; binding and its absence hold for the method and conditions named. In cells and extracts the contact can be indirect. A result given as binding can be weak or reduced; the word gives no strength.

Target: T1, TNFR-associated factor 2 (TRAF2) (human (endogenous in primary keratinocytes)) (UniProt Q12933)
T1 sequence: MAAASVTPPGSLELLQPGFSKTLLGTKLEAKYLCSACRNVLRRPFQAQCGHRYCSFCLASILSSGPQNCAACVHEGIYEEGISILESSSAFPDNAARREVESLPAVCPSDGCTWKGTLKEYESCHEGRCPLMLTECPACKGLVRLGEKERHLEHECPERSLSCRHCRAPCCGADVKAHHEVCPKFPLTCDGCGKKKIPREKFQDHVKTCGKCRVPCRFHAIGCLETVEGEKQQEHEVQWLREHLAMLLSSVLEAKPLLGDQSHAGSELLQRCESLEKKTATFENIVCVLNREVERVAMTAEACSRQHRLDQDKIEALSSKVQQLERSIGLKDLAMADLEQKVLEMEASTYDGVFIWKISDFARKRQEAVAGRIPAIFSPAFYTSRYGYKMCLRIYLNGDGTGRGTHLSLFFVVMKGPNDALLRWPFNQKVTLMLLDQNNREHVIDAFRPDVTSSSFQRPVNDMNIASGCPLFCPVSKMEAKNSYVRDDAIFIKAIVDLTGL
Assay: co-IP; lysates (RIPA buffer) of normal human primary keratinocytes, nonstimulated or TWEAK-stimulated (100 ng/ml); target IgG overnight at 4°C, protein G, Western blot; pairs with Fn14: TWEAK-stimulated cells

binding: binds
Substance: TNF receptor 1 (TNFR1)
